Measurements: article PMC4885489, “Prediction of Drug-Drug Interactions Arising from CYP3A induction Using a Physiologically Based Dynamic Model” (Drug Metabolism and Disposition, 2016)
Read-outs that look alike come from different tables or passages of the source.

Columns and labels:
[1] = system: rCYP3A4; conditions: human
[2] = system: CYP3A4; conditions: human, in vivo, cited from earlier work
[3] = system: CYP3A4; conditions: human, in vivo, cited from earlier work; remark: listed apart in the source
[4] = in vivo; cited from earlier work
[5] = system: rCYP3A4; conditions: cited from earlier work

## COC(=O)C1=C(C)NC(C)=C(C(=O)OC)C1c1ccccc1[N+](=O)[O-] [Nifedipine, nifedipine]
[1]
  rCYP3A4 Vmax: 33.8 µL/min/pmol
[2]; iv
  AUCi: 26.7 (44.9) ng/mL.h
[2]; po, 20 mg
  AUC: 230 (14.7) ng/mL.h
[2]; po
  AUCi: 18.8 (45.7) ng/mL.h
[3]; 20 mg
  AUC: 0.343 (36.4) mg/L.h
[3]
  AUCi: 0.135 (57.8) mg/L.h
[4]
  Vss (Minimal PBPK): 0.57 L/kg
[5]
  Km: 11 µM
